# Experimental data published in the supplement of paper PMC8728848.
# Some of the results follow.
# B1: SUN4 (Saccharomyces cerevisiae), P53616 (protein)
# chain: MGSSHHHHHHSSGLVPRGSHNGSIYGDLADFSGPYEKFEDGTIPCGQFPSGQGVIPISWLDEGGWSGVENTDTSTGGSCKEGSYCSYACQPGMSKTQWPSDQPSDGRSIGGLLCKDGYLYRSNTDTDYLCEWGVDAAYVVSELSNDVAICRTDYPGTENMVIPTYVQAGDSLPLTVVDQDTYYTWQGLKTSAQYYVNNAGISVEDACVWGSSSSGVGNWAPLNFGAGSSDGVAYLSLIPNPNNGNALNFNVKIVAADDSSTVNGECIYENGSFSGGSDGCTVSVTAGKAKFVLYN
# Tests used:
# Test in all cases: glycan array binding signal (z-score within array); higher = stronger binding
# Details in all cases: glycan notation: IUPAC condensed, linker removed
# [1] = molecular target: Gal(b1-4)GlcNAc(b1-3)Gal(b1-4)GlcNAc(b1-2)Man(a1-3)[Gal(b1-4)GlcNAc(b1-3)Gal(b1-4)GlcNAc(b1-2)Man(a1-6)]Man(b1-4)GlcNAc(b1-4)[Fuc(a1-6)]GlcNAc
# Procedure, shortened: (§1)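 Glycan array data were curated from 3228 arrays in the Consortium for Functional Glycomics database and kept only where the protein sequence was available. Glycan names were converted to IUPAC-condensed notation, and columns mapping to the same glycan were averaged. The binding signal is a within-array Z-score, averaged across arrays of the same protein sequence at different concentrations or buffers and across linkers. Negative Z-scores can be read as non-binding.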
# [2] = molecular target: Gal(b1-4)GlcNAc(b1-3)Gal(b1-4)GlcNAc(b1-2)[Gal(b1-4)GlcNAc(b1-3)Gal(b1-4)GlcNAc(b1-6)]Man(a1-6)[Gal(b1-4)GlcNAc(b1-3)Gal(b1-4)GlcNAc(b1-2)Man(a1-3)]Man(b1-4)GlcNAc(b1-4)GlcNAc
# Procedure, shortened: as §1
# [3] = molecular target: Gal(b1-4)GlcNAc(b1-3)Gal(b1-4)GlcNAc(b1-2)[Gal(b1-4)GlcNAc(b1-3)Gal(b1-4)GlcNAc(b1-6)]Man(a1-6)[Gal(b1-4)GlcNAc(b1-3)Gal(b1-4)GlcNAc(b1-2)Man(a1-3)]Man(b1-4)GlcNAc(b1-4)[Fuc(a1-6)]GlcNAc
# Procedure, shortened: as §1
# [4] = molecular target: Gal(b1-4)GlcNAc(b1-3)Gal(b1-4)GlcNAc(b1-3)Gal(b1-4)GlcNAc
# Procedure, shortened: as §1
# [5] = molecular target: Gal(b1-4)GlcNAc(b1-3)Gal(b1-4)GlcNAc(b1-3)Gal(b1-4)GlcNAc(b1-2)Man(a1-3)[Gal(b1-4)GlcNAc(b1-3)Gal(b1-4)GlcNAc(b1-3)Gal(b1-4)GlcNAc(b1-2)Man(a1-6)]Man(b1-4)GlcNAc(b1-4)GlcNAc
# Procedure, shortened: as §1
# [6] = molecular target: Gal(b1-4)GlcNAc(b1-3)Gal(b1-4)GlcNAc(b1-3)Gal(b1-4)GlcNAc(b1-2)Man(a1-3)[Gal(b1-4)GlcNAc(b1-3)Gal(b1-4)GlcNAc(b1-3)Gal(b1-4)GlcNAc(b1-2)Man(a1-6)]Man(b1-4)GlcNAc(b1-4)[Fuc(a1-6)]GlcNAc
# Procedure, shortened: as §1
# [7] = molecular target: Gal(b1-4)GlcNAc(b1-3)Gal(b1-4)GlcNAc(b1-3)Gal(b1-4)GlcNAc(b1-2)[Gal(b1-4)GlcNAc(b1-3)Gal(b1-4)GlcNAc(b1-3)Gal(b1-4)GlcNAc(b1-6)]Man(a1-6)[Gal(b1-4)GlcNAc(b1-3)Gal(b1-4)GlcNAc(b1-3)Gal(b1-4)GlcNAc(b1-2)Man(a1-3)]Man(b1-4)GlcNAc(b1-4)[Fuc(a1-6)]GlcNAc
# Procedure, shortened: as §1
# [8] = molecular target: Gal(b1-4)GlcNAc(b1-3)Gal(b1-4)GlcNAc(b1-3)Gal(b1-4)GlcNAc(b1-3)Gal(b1-4)GlcNAc(b1-2)Man(a1-3)[Gal(b1-4)GlcNAc(b1-3)Gal(b1-4)GlcNAc(b1-3)Gal(b1-4)GlcNAc(b1-3)Gal(b1-4)GlcNAc(b1-2)Man(a1-6)]Man(b1-4)GlcNAc(b1-4)GlcNAc
# Procedure, shortened: as §1
# [9] = molecular target: Gal(b1-4)GlcNAc(b1-3)Gal(b1-4)GlcNAc(b1-3)Gal(b1-4)GlcNAc(b1-3)Gal(b1-4)GlcNAc(b1-2)Man(a1-3)[Gal(b1-4)GlcNAc(b1-3)Gal(b1-4)GlcNAc(b1-3)Gal(b1-4)GlcNAc(b1-3)Gal(b1-4)GlcNAc(b1-2)Man(a1-6)]Man(b1-4)GlcNAc(b1-4)[Fuc(a1-6)]GlcNAc
# Procedure, shortened: as §1
# [10] = molecular target: Gal(b1-4)GlcNAc(b1-3)Gal(b1-4)GlcNAc(b1-3)Gal(b1-4)GlcNAc(b1-3)Gal(b1-4)GlcNAc(b1-2)[Gal(b1-4)GlcNAc(b1-3)Gal(b1-4)GlcNAc(b1-3)Gal(b1-4)GlcNAc(b1-3)Gal(b1-4)GlcNAc(b1-6)]Man(a1-6)[Gal(b1-4)GlcNAc(b1-3)Gal(b1-4)GlcNAc(b1-3)Gal(b1-4)GlcNAc(b1-3)Gal(b1-4)GlcNAc(b1-2)Man(a1-3)]Man(b1-4)GlcNAc(b1-4)[Fuc(a1-6)]GlcNAc
# Procedure, shortened: as §1
# [11] = molecular target: Gal(b1-4)GlcNAc(b1-3)Gal(b1-4)GlcNAc(b1-3)Gal(b1-4)GlcNAc(b1-3)Gal(b1-4)GlcNAc(b1-3)Gal(b1-4)GlcNAc(b1-2)Man(a1-3)[Gal(b1-4)GlcNAc(b1-3)Gal(b1-4)GlcNAc(b1-3)Gal(b1-4)GlcNAc(b1-3)Gal(b1-4)GlcNAc(b1-3)Gal(b1-4)GlcNAc(b1-2)Man(a1-6)]Man(b1-4)GlcNAc(b1-4)GlcNAc
# Procedure, shortened: as §1
# [12] = molecular target: Gal(b1-4)GlcNAc(b1-3)Gal(b1-4)GlcNAc(b1-3)Gal(b1-4)GlcNAc(b1-3)Gal(b1-4)GlcNAc(b1-3)Gal(b1-4)GlcNAc(b1-2)Man(a1-3)[Gal(b1-4)GlcNAc(b1-3)Gal(b1-4)GlcNAc(b1-3)Gal(b1-4)GlcNAc(b1-3)Gal(b1-4)GlcNAc(b1-3)Gal(b1-4)GlcNAc(b1-2)Man(a1-6)]Man(b1-4)GlcNAc(b1-4)[Fuc(a1-6)]GlcNAc
# Procedure, shortened: as §1
# [13] = molecular target: Gal(b1-4)GlcNAc(b1-3)Gal(b1-4)GlcNAc(b1-3)Gal(b1-4)GlcNAc(b1-3)Gal(b1-4)GlcNAc(b1-3)Gal(b1-4)GlcNAc(b1-2)[Gal(b1-4)GlcNAc(b1-3)Gal(b1-4)GlcNAc(b1-3)Gal(b1-4)GlcNAc(b1-3)Gal(b1-4)GlcNAc(b1-3)Gal(b1-4)GlcNAc(b1-6)]Man(a1-6)[Gal(b1-4)GlcNAc(b1-3)Gal(b1-4)GlcNAc(b1-3)Gal(b1-4)GlcNAc(b1-3)Gal(b1-4)GlcNAc(b1-3)Gal(b1-4)GlcNAc(b1-2)Man(a1-3)]Man(b1-4)GlcNAc(b1-4)[Fuc(a1-6)]GlcNAc
# Procedure, shortened: as §1
# [14] = molecular target: Gal(b1-4)GlcNAc(b1-3)Gal(b1-4)GlcNAc(b1-3)Gal(b1-4)GlcNAc(b1-3)Gal(b1-4)GlcNAc(b1-3)Gal(b1-4)GlcNAc(b1-3)Gal(b1-4)GlcNAc(b1-2)Man(a1-3)[Gal(b1-4)GlcNAc(b1-3)Gal(b1-4)GlcNAc(b1-3)Gal(b1-4)GlcNAc(b1-3)Gal(b1-4)GlcNAc(b1-3)Gal(b1-4)GlcNAc(b1-3)Gal(b1-4)GlcNAc(b1-2)Man(a1-6)]Man(b1-4)GlcNAc(b1-4)GlcNAc
# Procedure, shortened: as §1
# [15] = molecular target: Gal(b1-4)GlcNAc(b1-3)Gal(b1-4)GlcNAc(b1-3)GalNAc
# Procedure, shortened: as §1
# [16] = molecular target: Gal(b1-4)GlcNAc(b1-3)Gal(b1-4)GlcNAc(b1-3)[Gal(b1-4)GlcNAc(b1-3)Gal(b1-4)GlcNAc(b1-6)]GalNAc
# Procedure, shortened: as §1
# [17] = molecular target: Gal(b1-4)GlcNAc(b1-3)Gal(b1-4)GlcNAc(b1-6)[Gal(b1-3)]GalNAc
# Procedure, shortened: as §1
# [18] = molecular target: Gal(b1-4)GlcNAc(b1-3)Gal(b1-4)[Fuc(a1-3)]GlcNAc(b1-3)Gal(b1-4)[Fuc(a1-3)]GlcNAc
# Procedure, shortened: as §1
# [19] = molecular target: Gal(b1-4)GlcNAc(b1-3)GalNAc
# Procedure, shortened: as §1
# [20] = molecular target: Gal(b1-4)GlcNAc(b1-3)[Fuc(a1-3)GlcNAc(b1-6)]Gal(b1-4)Glc
# Procedure, shortened: as §1
# [21] = molecular target: Gal(b1-4)GlcNAc(b1-3)[Gal(b1-4)GlcNAc(b1-6)]Gal(b1-4)GlcNAc
# Procedure, shortened: as §1
# [22] = molecular target: Gal(b1-4)GlcNAc(b1-3)[GlcNAc(b1-6)]Gal(b1-4)GlcNAc
# Procedure, shortened: as §1
# [23] = molecular target: Gal(b1-4)GlcNAc(b1-6)Gal(b1-4)GlcNAc
# Procedure, shortened: as §1
# [24] = molecular target: Gal(b1-4)GlcNAc(b1-6)GalNAc
# Procedure, shortened: as §1
# [25] = molecular target: Gal(b1-4)GlcNAc(b1-6)[Gal(b1-3)]GalNAc
# Procedure, shortened: as §1
# [26] = molecular target: Gal(b1-4)GlcNAc(b1-6)[Gal(b1-4)GlcNAc(b1-3)]GalNAc
# Procedure, shortened: as §1
# Gal(b1-4)GlcNAc6P = molecular target: Gal(b1-4)GlcNAc6P
# Procedure, shortened: as §1
# Gal(b1-6)Gal = molecular target: Gal(b1-6)Gal
# Procedure, shortened: as §1
# Gal3S(b1-3)GalNAc = molecular target: Gal3S(b1-3)GalNAc
# Procedure, shortened: as §1
# Gal3S(b1-3)GlcNAc = molecular target: Gal3S(b1-3)GlcNAc
# Procedure, shortened: as §1
# [27] = molecular target: Gal3S(b1-3)[Fuc(a1-4)]GlcNAc
# Procedure, shortened: as §1
# Gal3S(b1-4)Glc = molecular target: Gal3S(b1-4)Glc
# Procedure, shortened: as §1
# Gal3S(b1-4)Glc6S = molecular target: Gal3S(b1-4)Glc6S
# Procedure, shortened: as §1
# Gal3S(b1-4)GlcNAc = molecular target: Gal3S(b1-4)GlcNAc
# Procedure, shortened: as §1
# [28] = molecular target: Gal3S(b1-4)[Fuc(a1-3)]Glc6S
# Procedure, shortened: as §1
# [29] = molecular target: Gal3S(b1-4)[Fuc(a1-3)]GlcNAc
# Procedure, shortened: as §1
# [30] = molecular target: Gal3S(b1-4)[Fuc(a1-3)]GlcNAc6S
# Procedure, shortened: as §1
binder,measurement,setting,value
B1,glycan array binding signal (z-score),[1],2
same,glycan array binding signal (z-score),[2],0.506
same,glycan array binding signal (z-score),[3],1.67
same,glycan array binding signal (z-score),[4],-0.393
same,glycan array binding signal (z-score),[5],0.805
same,glycan array binding signal (z-score),[6],2.9
same,glycan array binding signal (z-score),[7],1.44
same,glycan array binding signal (z-score),[8],1.29
same,glycan array binding signal (z-score),[9],1.54
same,glycan array binding signal (z-score),[10],0.519
same,glycan array binding signal (z-score),[11],-0.275
same,glycan array binding signal (z-score),[12],0.385
same,glycan array binding signal (z-score),[13],1.85
same,glycan array binding signal (z-score),[14],0.625
same,glycan array binding signal (z-score),[15],0.436
same,glycan array binding signal (z-score),[16],1.79
same,glycan array binding signal (z-score),[17],1.13
same,glycan array binding signal (z-score),[18],-0.015
same,glycan array binding signal (z-score),[19],0.243
same,glycan array binding signal (z-score),[20],0.07
same,glycan array binding signal (z-score),[21],-1.28
same,glycan array binding signal (z-score),[22],-0.542
same,glycan array binding signal (z-score),[23],-0.769
same,glycan array binding signal (z-score),[24],0.067
same,glycan array binding signal (z-score),[25],-0.789
same,glycan array binding signal (z-score),[26],0.441
same,glycan array binding signal (z-score),Gal(b1-4)GlcNAc6P,-1.18
same,glycan array binding signal (z-score),Gal(b1-6)Gal,-0.735
same,glycan array binding signal (z-score),Gal3S(b1-3)GalNAc,0.884
same,glycan array binding signal (z-score),Gal3S(b1-3)GlcNAc,0.398
same,glycan array binding signal (z-score),[27],1.86
same,glycan array binding signal (z-score),Gal3S(b1-4)Glc,-0.193
same,glycan array binding signal (z-score),Gal3S(b1-4)Glc6S,0.778
same,glycan array binding signal (z-score),Gal3S(b1-4)GlcNAc,-0.014
same,glycan array binding signal (z-score),[28],0.797
same,glycan array binding signal (z-score),[29],1.19
same,glycan array binding signal (z-score),[30],0.474

# In another format: entries from further up.
binder	measurement	setting	value
B1	glycan array binding signal (z-score)	[23]	-0.769
same	glycan array binding signal (z-score)	[24]	0.067
